Data source: PubChem BioAssay AID1259254 (NCATS, 2017)
The deposit covers about 59,000 reagents; shown is a part drawn at random. Of all reagents, about 1,550 (2.6%) are marked active. 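G2 share is only a proxy for re-replication; each gene was hit by three separate siRNAs, and active genes were retested.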 Entries without a mark were called inactive. The numbers tell different reagents against one gene apart. Not all columns of the deposit are shown. The record does not give: the amount of reagent.

Assay: 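Gene knock-downs that lead to re-replication, shown by excess G2 DNA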 (primary screen)
Cell system: human HCT116 colorectal cancer cells
Reagent: single siRNA against human genes
Timing: 3 days
Read-out: 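Nuclei stained with Hoechst and imaged; cell-cycle phase assigned by DNA content; G2 share scaled per plate, non-targeting siRNA 0%, GMNN siRNA 100%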
Scale: G2 robust z-score: higher = more G2 cells, more excess DNA replication
Hit rule: 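Active siRNAs have a G2 robust z of 5 or more median absolute deviations over the median, which in these data means about 38% or higher of GMNN control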

| Target gene | reagent no. | G2 robust z-score |
| --- | --- | --- |
| TTPAL | 1 | 2.39 |
| TTPAL | 2 | 0.555 |
| TTPAL | 3 | 0.159 |
| CRK | 1 | 4.51 |
| CRK | 2 | 0.578 |
| CRK | 3 | 0.526 |
| RTEL1 | 1 | 0.338 |
| RTEL1 | 2 | -0.867 |
| RTEL1 | 3 | -0.918 |
| C20orf144 | 1 | -0.337 |
| C20orf144 | 2 | -0.426 |
| C20orf144 | 3 | 1.61 |

Next part (3 carried over from the part before).
| Target gene | reagent no. | G2 robust z-score |
| --- | --- | --- |
| C20orf144 | 1 | -0.337 |
| C20orf144 | 2 | -0.426 |
| C20orf144 | 3 | 1.61 |
| CDC14A | 1 | -1.13 |
| CDC14A | 2 | -0.554 |
| CDC14A | 3 | -0.961 |
| RASSF1 | 1 | -0.401 |
| RASSF1 | 2 | 13.3 (active) |
| RASSF1 | 3 | 1.81 |
| CEBPZ | 1 | -0.855 |
| CEBPZ | 2 | 0.96 |
| CEBPZ | 3 | 0.215 |
| SOCS7 | 1 | 0.0202 |
| SOCS7 | 2 | -0.567 |
| SOCS7 | 3 | 1.37 |
| MRPL24 | 1 | -0.191 |
| MRPL24 | 2 | -0.11 |
| MRPL24 | 3 | 1.61 |
| WDR88 | 1 | -0.963 |
| WDR88 | 2 | 0.564 |
| WDR88 | 3 | -0.579 |
